These are yes or no findings as the source states them, for the method shown. Some entries that bind do so weakly or less than the wild type.
Molecular target: T1, recombinant pH-regulated antigen 1 (Pra1) of C. albicans (Candida albicans) (UniProt P87020)
T1 sequence (looked up): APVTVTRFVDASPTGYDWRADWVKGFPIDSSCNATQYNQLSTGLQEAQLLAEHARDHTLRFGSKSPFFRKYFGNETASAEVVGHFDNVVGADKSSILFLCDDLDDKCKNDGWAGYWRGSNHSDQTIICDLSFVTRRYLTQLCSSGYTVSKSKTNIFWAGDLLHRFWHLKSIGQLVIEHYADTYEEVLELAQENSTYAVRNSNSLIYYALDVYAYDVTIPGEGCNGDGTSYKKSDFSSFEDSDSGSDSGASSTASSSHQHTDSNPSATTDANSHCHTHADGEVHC
Assay: Western blot on recombinant protein

binding: binds
B1: monoclonal antibody 8C3 directed against Pra1 of Candida albicans, produced by the hybridoma cell line DSM ACC 3369 (antibody, mouse IgG1, kappa, V domains shown)
VH: EVQLVESGGDLVKPGGSLKLSCAASGFTFSTYGMSWVRQTPDKRLEWVATISSGGSYTYYPDSVKGRFTISRDNVKNTLYLQMSSLKSEDTAMYYCARQGLDDNYAEWYFDVWGAGTTVTVSS
VL: DILLTQSPATLSVTPGETVSLSCRASQSIYKNLHWYQQKSHRSPRLLIKYASDSISGIPSRFTGSGSGTDYTLSINSVKPEDEGKYYCLQGFSTPWTFGGGTKLEIKR

Reference: patent US20240352099A1
